Percent effect of library compounds

Mtb cholesterol medium: 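Phenotypic screen: M. tuberculosis growth, cholesterol and DPPC medium, 4 days; the read-out is not stated. Concentration: 50 µM. Higher reads as more growth inhibition (inferred: compounds with an IC50 in retests scored well above the rest). Of about 69,000 compounds tested this way, about 370 (0.54%) reached 50% or more in at least one test.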
Mtb glucose medium: 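Growth of Mycobacterium tuberculosis over 3 days (7H9 medium with glucose and tyloxapol); the read-out is not stated. Compounds at 50 µM. Direction is inferred from retests: higher values go with more growth inhibition. Size under these conditions: about 69,000 compounds, about 760 of them at 50% or above in at least one test.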

The filed quantity is “Percent Effect” (%). The controls that fix the scale are not given in the record; negative values are as filed. This is an unselected part of the compounds tested. Two or more numbers in one place are separate tests of the same structure; such repeats can differ widely.

| # | SMILES | Mtb cholesterol medium | Mtb glucose medium |
|---|---|---|---|
| 1 | `[H][C@@]12C[C@H](C(=O)NC(C)C)[C@@]([H])(CN(C(=O)Nc3ccc(CC)cc3)C1)O2` | -9.249% | -3.198% |
| 2 | `COc1ccc(N2CCN(CC(O)c3cc(C)ccc3C)CC2)cc1` (stereo unspecified) | 5.394% | 32.17% |
| 3 | `O=C(O)C(F)(F)F.O=C(O)C(F)(F)F.O=C1Nc2ccccc2C12CCN(Cc1ccccn1)CC2` | -7.737% | 0.2943% |
| 4 | `CCc1ncc2c(n1)CN(Cc1cc(C)on1)CC2` | -6.955% | -23.37% |
| 5 | `COCCN(CCOC)c1nc2c(s1)c(C)nn2C` | -18.03% | -21.26% & -6.037% |
| 6 | `COCCN1CCN(CC2CCCCO2)CC1` (stereo unspecified) | -12.01% & -27.67% | -66.33% |
| 7 | `COc1ccccc1C(CNC(=O)NCc1cc[nH]n1)N1CCCC1` (stereo unspecified) | 18.73% | 11.29% & -2.208% |
| 8 | `Cc1nn(C)c(C)c1CN(CCO)C(=O)C1COc2ccccc2C1` (stereo unspecified) | 77.41% & -46.01% | -20.69% & -5.677% |
| 9 | `Cc1ccccc1NCc1nc2n(n1)CCCCC2` | -32.02% | -15.66% |
| 10 | `Cc1ccnc(C2CCN(CCCOc3ccccc3F)C2)n1` (stereo unspecified) | -13.72% & -12.61% | -19.24% |
| 11 | `COc1cccc(-c2noc(-c3ccc(NCCCN)nc3)n2)c1OC` | 1.507% & -5.398% | 17.99% |
| 12 | `c1csc(-c2noc(CCCNC3CCc4ncnn4C3)n2)c1` (stereo unspecified) | 13.95% | 26.79% |
| 13 | `CN(C)S(=O)(=O)N1CCCCCC1c1cc(-c2ccc(F)cc2)no1` (stereo unspecified) | 13.14% & 14.53% | 3.212% |
| 14 | `NC(=O)COc1ccc(CNC(=O)CN2CCc3ccccc32)cc1` | -18.66% | -4.805% & 3.878% |
| 15 | `Clc1ccc(C2(NCc3noc(C4CC4)n3)CCCC2)cc1` | 31.59% | 9.505% |
| 16 | `Cc1csc(N2CCN(Cc3cccnc3)CC2C)n1` (stereo unspecified) | 12.19% | 24.97% |
| 17 | `O=C1CCC(=O)N1c1nn(Cc2cccc(F)c2)cc1Cl` | -9.764% | -6.232% |
| 18 | `Cc1cnn(CCNCC(=O)N(C)C(C)c2ccccc2)c1` (stereo unspecified) | -1.974% | -3.887% |
| 19 | `CS(=O)(=O)N1CCCC1Cn1cccn1` (stereo unspecified) | 27.61% | -6.476% |
| 20 | `CCCc1cc(C(=O)N2CCC3(CC2)CN(CCN(C)C)C(=O)O3)no1` | 6.235% & -7.497% | -11.81% |
| 21 | `O=C(CCC(F)(F)F)N1CCCC(c2ncc[nH]2)C1` (stereo unspecified) | 0.005705% | -16.02% |
| 22 | `CC(C)NC(=O)CN(C)C1CCN(c2ccc(C#N)cn2)CC1` | -10.08% | 4.485% |
| 23 | `CC(C)(NC(=O)c1ccc(-c2ccccc2F)s1)C(N)=O` | -31.86% | -52.5% & -4.041% |
| 24 | `Fc1ccc(C2CCCCN2Cc2cc(-c3ccccn3)no2)cc1` (stereo unspecified) | 10.46% | 18.55% |
| 25 | `c1cnc(-c2cnc(N3CCSCC3)nc2C2CC2)cn1` | -0.01474% | 2.033% |
| 26 | `COc1ccc(-c2nnsc2C(=O)N2CCOCC2)cc1` | 7.718% | 4.178% & -25.84% |
| 27 | `Cn1nc2c(cc1=O)CN(Cc1nnc(C3CC3)o1)CC2` | -31.34% | -45.66% |
| 28 | `Cc1cc(C(F)(F)F)c2c(=O)n(Cc3ccon3)n(C)c2n1` | 29.26% | 21.37% |
| 29 | `O=S(=O)(Nc1nccs1)c1cc(Cl)cc2c1OCC2` | -17.04% | 4.428% & 25.97% |
| 30 | `Cc1cc(NC(=O)COC(=O)c2ccc(F)cc2Br)n(C)n1` | 9.11% | 28.69% |
| 31 | `Cc1n[nH]cc1CNC1(c2ccc(Br)cc2)CC1` | 18.98% | -8.899% |
| 32 | `CCn1ccnc1CN1CCCN(C(=O)c2scnc2C)CC1` | -5.371% | 0.756% |
| 33 | `COCCN(CC1CCCN(C2Cc3ccccc3C2)C1)C(=O)CSC` (stereo unspecified) | 19.09% | 8.1% |
| 34 | `Cc1nc(C)c(CCNc2ccc(S(N)(=O)=O)cc2C#N)s1` | -13.11% | 15.3% |
| 35 | `O=C(O)C(F)(F)F.c1csc(NCc2n[nH]c3c2CCN(CC2CC2)C3)n1` | -8.969% | 16.96% |
| 36 | `COC(=O)C1C=CCN1C(=O)c1cc(COc2ccccc2)[nH]n1` (stereo unspecified) | -9.755% | -22.88% & 4.906% |
| 37 | `CCc1ccc2nc(NCCOCCO)cc(C)c2c1` | 9.267% & -1.973% | 2.09% |
| 38 | `O=C1CC(c2ccc(Cl)c(Cl)c2)c2c(n3ccsc3nc2=O)N1` (stereo unspecified) | -29.31% | 2.011% |
| 39 | `COC(=O)c1cnn(-c2cc(Oc3cccc(C)c3)ncn2)c1N` | -10.02% | -22.37% |
| 40 | `NC(=O)C1CN(c2ccc3cc(Br)ccc3n2)CCO1` (stereo unspecified) | 4.697% | 12.42% |
| 41 | `C=C(C)COc1cccc(C(=O)NCCCc2nnn[nH]2)c1` | -3.112% | -0.3052% & -7.752% |
| 42 | `N#CC1(NC(=O)c2ccc(-c3nc(C4CC4)n[nH]3)cc2)CC1` | 10.22% | -19.19% |
| 43 | `COc1ccc2c(C(=O)N(C)C)cc(-c3cnc(N)nc3)nc2c1` | 2.777% | 5.905% |
| 44 | `O=C(CC1CC1)NCc1cn2c(n1)CN(Cc1cccc(F)c1)CC2.O=C(O)C(F)(F)F` | -26.91% | 25.1% |
| 45 | `CN(C)CCNC(=O)CCn1ncc2c(Cl)cccc21` | -6.328% | 4.416% |
| 46 | `CC1(C)CN(C(=O)CC2CCC2)C[C@]1(C)O` | 0.8471% & -10.03% | 50.29% |
| 47 | `Cc1cc(N(C)C)nc(C2(C)CCCN2CC(N)=O)n1` (stereo unspecified) | -1.902% & -2.442% | 23.65% |
| 48 | `O=C(O)C(F)(F)F.[H][C@]12CN(Cc3cc(C)on3)C[C@@]1([H])OCCN(C(=O)c1ccco1)C2` | 0.4165% | 1.602% & 2.438% |
| 49 | `COCCn1c(-c2cccc(OC)c2)cnc1NC(=O)NCC(C)C` | 0.7824% | 28.06% |
| 50 | `O=C(c1c[nH]c(=O)[nH]c1=O)N1CCCC(c2nccn2CC2CCC2)C1` (stereo unspecified) | 20.42% | 9.783% |
| 51 | `CC(c1nc(C2CC2)no1)N1CCN(Cc2cccc(F)c2F)CC1` (stereo unspecified) | -19.32% | 5.409% |
| 52 | `Cc1nn(C)c2c(=O)n(CC(=O)NCc3ccc(N(C)C)cc3)ccc12` | 18.02% | 31.27% |
| 53 | `O=C(O)c1ccc2c(c1)C1(CCCCC1)CN2C(=O)c1ccnnc1` | -4.792% | 5.267% & 0.1195% |
| 54 | `CC1c2ncc(COCc3ccccn3)n2CCN1C1CCCC1.O=C(O)C(F)(F)F.O=C(O)C(F)(F)F` (stereo unspecified) | 5.898% | -2.127% & 7.101% |
| 55 | `Cc1noc([C@@H]2C[C@H](NS(=O)(=O)Cc3ccccc3)CN2C)n1` | -4.624% | -0.3116% & 21.96% |
| 56 | `COc1cccc(OC2CN(C(=O)C3CCCN(C(=O)N(C)C)C3)C2)c1` (stereo unspecified) | 22.42% | 4.769% |
| 57 | `O=C(O)C(F)(F)F.O=C(O)C(F)(F)F.[H][C@@]12CCN(C(=O)CC(C)C)CC[C@]1(C(=O)Nc1cccnc1)CCN2C` | 2.239% | 11.19% |

6 of the entries, repeated:

Cc1nn(C)c2c(=O)n(CC(=O)NCc3ccc(N(C)C)cc3)ccc12 gave Mtb cholesterol medium: 18.02%; Mtb glucose medium: 31.27%.
Cc1nc(C)c(CCNc2ccc(S(N)(=O)=O)cc2C#N)s1 gave Mtb cholesterol medium: -13.11%; Mtb glucose medium: 15.3%.
N#CC1(NC(=O)c2ccc(-c3nc(C4CC4)n[nH]3)cc2)CC1 gave Mtb cholesterol medium: 10.22%; Mtb glucose medium: -19.19%.
O=C(O)C(F)(F)F.c1csc(NCc2n[nH]c3c2CCN(CC2CC2)C3)n1 gave Mtb cholesterol medium: -8.969%; Mtb glucose medium: 16.96%.
CCc1ccc2nc(NCCOCCO)cc(C)c2c1 gave Mtb cholesterol medium: 9.267% & -1.973%; Mtb glucose medium: 2.09%.
O=C(O)C(F)(F)F.O=C(O)C(F)(F)F.[H][C@@]12CCN(C(=O)CC(C)C)CC[C@]1(C(=O)Nc1cccnc1)CCN2C gave Mtb cholesterol medium: 2.239%; Mtb glucose medium: 11.19%.

Source: ChEMBL document CHEMBL3988442, “University of Dundee, Small-Polar-MMV Screening Library” (2021).